Measurements taken from patent US20230340098A1.
These are yes or no findings as the source states them, for the method shown. Some results given as binding are weak or reduced against the parent protein; the word gives no strength.

Sequences of proteins named here, by UniProt entry; tags and fusion partners are left off. A change or cut given only in a name is not applied to a line headed by its entry. Residues count along the entry.
UniProt Q14392, residues 20-627: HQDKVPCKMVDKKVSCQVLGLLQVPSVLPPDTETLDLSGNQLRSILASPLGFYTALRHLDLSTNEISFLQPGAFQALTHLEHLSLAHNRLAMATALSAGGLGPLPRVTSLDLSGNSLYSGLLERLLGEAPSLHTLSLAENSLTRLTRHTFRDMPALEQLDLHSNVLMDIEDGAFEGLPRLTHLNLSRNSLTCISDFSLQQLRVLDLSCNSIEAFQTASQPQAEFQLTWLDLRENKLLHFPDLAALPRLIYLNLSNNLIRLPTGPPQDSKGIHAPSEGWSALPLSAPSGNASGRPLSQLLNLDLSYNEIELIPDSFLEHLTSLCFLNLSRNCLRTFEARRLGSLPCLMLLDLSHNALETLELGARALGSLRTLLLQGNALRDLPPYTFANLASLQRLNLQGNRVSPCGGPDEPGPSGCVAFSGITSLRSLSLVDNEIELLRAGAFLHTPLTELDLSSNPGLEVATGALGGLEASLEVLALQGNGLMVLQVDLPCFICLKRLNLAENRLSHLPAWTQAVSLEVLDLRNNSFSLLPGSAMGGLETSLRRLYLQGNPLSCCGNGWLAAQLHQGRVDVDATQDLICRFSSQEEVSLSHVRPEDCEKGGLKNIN
UniProt P01137: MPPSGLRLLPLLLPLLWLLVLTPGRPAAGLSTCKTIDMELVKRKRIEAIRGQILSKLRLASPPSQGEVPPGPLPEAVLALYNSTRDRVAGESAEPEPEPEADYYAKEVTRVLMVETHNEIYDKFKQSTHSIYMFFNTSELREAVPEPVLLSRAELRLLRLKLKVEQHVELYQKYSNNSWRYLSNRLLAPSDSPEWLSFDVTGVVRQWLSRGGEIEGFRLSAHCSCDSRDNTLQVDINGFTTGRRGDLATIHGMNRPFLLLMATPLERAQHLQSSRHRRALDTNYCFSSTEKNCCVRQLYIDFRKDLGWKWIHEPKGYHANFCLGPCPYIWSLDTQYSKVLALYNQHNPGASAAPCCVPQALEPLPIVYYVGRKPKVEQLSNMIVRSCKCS

Key:
[1] = molecular target: human GARP protein not in any GARP/TGFβ1 complex (protein used in ELISA and Octet) (human) (UniProt Q14392); test: Octet
[2] = molecular target: T1, human GARP/TGFβ1 complex (protein used in ELISA and Octet) (human) (UniProt Q14392+P01137); test: Octet
[3] = molecular target: T1, human GARP/TGFβ1 complex (protein used in ELISA and Octet) (human); test: ELISA, coated complex
[4] = molecular target: human GARP protein not in any GARP/TGFβ1 complex (protein used in ELISA and Octet) (human) (UniProt Q14392); test: ELISA, coated GARP protein

Measured: binding

B1: Clone hGA17 (antibody, human IgG1, kappa, V domains shown)
VH: QVQLVQSGAEVKKPGASVKVSCKASGFNIKDTYFHWVRQAPGQGLEWMGRIDPTNGNGRYAQKFQGRVTMTRDTSTSTVYMELSSLRSEDTAVYYCATSTGTGYFALVYWGQGTTVTVSS
VL: DIQLTQSPSFLSASVGDRVTITCKASQNVGSAVAWYQQKPGKAPKLLIYWSSTRHTGVPSRFSGSGSGTEFTLTISSLQPEDFATYYCQQYSNYPLTFGGGTKLEIKR
binds: [1] | [2] | [3] | [4]
